Data published in PubChem BioAssay AID248 (DTP/NCI, 2004).
The list shows only some results of the screen, not a fair sample: it gathers tests that were run many times, whatever their T/C, doses with no T/C, and many T/C values between a quarter and a half above the control. Further doses and runs are listed elsewhere. T/C gives the treated animals as a percentage of the vehicle group. Some doses have a count of surviving animals in place of a T/C: the source files T/C as zero there, which appears to mark a toxic dose or a test without result, not a measured value. Some doses without a T/C left all or most animals alive at the check, yet need not have been tolerated: survival well below the control is almost never listed, so the zero probably covers shortened survival too. Survivors were counted at the toxicity check, usually on the fifth day, unless a day is given; later deaths do not show. Schedules are NCI's codes, taken here to give the interval after Q, in days (D) or hours (H), and the number of doses after X. Some schedules carry Z or #; the key to these is not given. For survival time, the PubChem record calls one and a half times the control and up active, and a quarter to a half above the control has no call in these data; cut-offs in other NCI protocols can differ. Some entries were tested several times; the values are given in rising order. Some T/C values are followed by the survivors on the day toxicity was checked, most often the fifth; without a count, all were alive then.

System: L1210 leukemia ip in BDF1 mice, survival T/C
Experiment: NCI In Vivo Anticancer Drug Screen. Data for tumor model L1210 Leukemia (intraperitoneal) in B6D2F1 (BDF1) mice
Conditions: T/C endpoint: mean survival time, higher T/C = longer survival
[1] = dose: 400.0 mg/kg/injection, schedule: Q01DX001 (ip), vehicle: saline
[2] = dose: 400.0 mg/kg/injection, schedule: Q01DX009 (ip), vehicle: Klucel (hydroxypropylcellulose) (HPC)
[3] = dose: 400.0 mg/kg/injection, schedule: Q04DX003 (ip), vehicle: saline with Tween-80
[4] = dose: 400.0 mg/kg/injection, schedule: Q01DX009 (ip), vehicle: saline
[5] = dose: 200.0 mg/kg/injection, schedule: Q04DX003 (ip), vehicle: saline with Tween-80
[6] = dose: 400.0 mg/kg/injection, schedule: Q04DX003 (ip), vehicle: Klucel (hydroxypropylcellulose) (HPC)
[7] = dose: 100.0 mg/kg/injection, schedule: Q01DX009 (ip), vehicle: saline with Tween-80
[8] = dose: 400.0 mg/kg/injection, schedule: Q01DX009 (ip), vehicle: saline with Tween-80
[9] = dose: 400.0 mg/kg/injection, schedule: Q04DX003 (ip), vehicle: saline
[10] = dose: 400.0 mg/kg/injection, schedule: Q04DX003 (ip), vehicle: acetone
[11] = dose: 400.0 mg/kg/injection, schedule: Q01DX001 (ip), vehicle: other
[12] = dose: 200.0 mg/kg/injection, schedule: Q01DX009 (ip), vehicle: acetone

C1CN=C2CCCN2C1
survivor count (dose: 75.0 mg/kg/injection, schedule: Q01DX009 (ip), vehicle: saline): 2 of 6 | survivor count (dose: 150.0 mg/kg/injection, schedule: Q01DX009 (ip), vehicle: saline): 0 of 6

Nc1nc(SCc2ccncc2)c2[nH]cnc2n1
T/C (dose: 267.0 mg/kg/injection, schedule: Q01DX001 (ip), vehicle: saline): 135 % of control | T/C [1]: 147 % of control | survivor count (dose: 600.0 mg/kg/injection, schedule: Q01DX001 (ip), vehicle: saline): 0 of 6

CC(C)OC(CCC#N)c1ccccc1 (stereo unspecified)
survivor count [2]: 5 of 6

CNC(=S)N/N=C(\C)CSC/C(C)=N/NC(=S)NC
survivor count (dose: 50.0 mg/kg/injection, schedule: Q04DX003 (ip), vehicle: Klucel (hydroxypropylcellulose) (HPC)): 8 of 8

CCOC(=O)c1cnc(NN)nc1NCc1ccccc1
survivor count [3]: 3 of 6

CCN(CC)CCN(CC)CCN(CC)CC
survivor count [4]: 0 of 6

Cc1ccc(Cl)cc1N=Cc1ccccc1O
T/C [5]: 125 % of control

CCN(CC)CCCCCOC(=O)c1ccccc1
T/C (dose: 100.0 mg/kg/injection, schedule: Q01DX009 (ip), vehicle: Klucel (hydroxypropylcellulose) (HPC)): 127 % of control | survivor count [6]: 0 of 6

CCC1=C/C(=C\c2ccc3c(c2)OCO3)C(=O)S1
survivor count (dose: 100.0 mg/kg/injection, schedule: Q04DX002 (ip), vehicle: saline with Tween-80): 3 of 3

NC(=O)c1cn[nH]c1/N=N/N(CCF)CCF
T/C (dose: 15.0 mg/kg/injection, schedule: Q01DX009 (ip), vehicle: other): 136 % of control [5 of 6 alive] | survivor count (dose: 38.0 mg/kg/injection, schedule: Q01DX001 (ip), vehicle: other): 1 of 6 | survivor count (dose: 75.0 mg/kg/injection, schedule: Q01DX001 (ip), vehicle: other): 0 of 6 | survivor count (dose: 150.0 mg/kg/injection, schedule: Q01DX001 (ip), vehicle: other): 0 of 6 | survivor count (dose: 300.0 mg/kg/injection, schedule: Q01DX001 (ip), vehicle: other): 0 of 6

CCOC(=O)CCCN(c1sc(C)c(-c2ccccc2)c1C(=O)OCC)S(=O)(=O)c1ccc(C)cc1
survivor count [7]: 6 of 6

CCCCN1c2ccccc2NP1(=S)c1ccccc1 (stereo unspecified)
survivor count (dose: 400.0 mg/kg/injection, schedule: Q04DX002 (ip), vehicle: DMSO): 2 of 3

O=C1/C(=C/c2ccncc2)CCCc2ccccc21
survivor count (dose: 100.0 mg/kg/injection, schedule: Q04DX003 (ip), vehicle: carboxymethylcellulose (CMC)): 6 of 6 | survivor count (dose: 400.0 mg/kg/injection, schedule: Q04DX003 (ip), vehicle: carboxymethylcellulose (CMC)): 0 of 6

COC(=O)c1ccc(OC(=O)Nc2cc(Cl)ccc2C)cc1
survivor count [8]: 6 of 6

O=C(CCl)OC(=O)C(Cl)(Cl)Cl
survivor count [9]: 0 of 6

COc1ccccc1/C=N/N=C(N)N
survivor count (dose: 62.0 mg/kg/injection, schedule: Q01DX Z (ip), vehicle: other): 3 of 6 | survivor count (dose: 62.5 mg/kg/injection, schedule: Q01DX Z (ip), vehicle: saline): 2 of 6 | survivor count (dose: 125.0 mg/kg/injection, schedule: Q01DX Z (ip), vehicle: other): 0 of 6 | survivor count (dose: 125.0 mg/kg/injection, schedule: Q01DX Z (ip), vehicle: saline): 4 of 6 | survivor count (dose: 250.0 mg/kg/injection, schedule: Q01DX Z (ip), vehicle: saline): 0 of 6 | survivor count (dose: 500.0 mg/kg/injection, schedule: Q01DX Z (ip), vehicle: saline): 0 of 6

CC(C)N1CCC1C (stereo unspecified)
survivor count (dose: 200.0 mg/kg/injection, schedule: Q04DX003 (ip), vehicle: acetone): 4 of 6 | survivor count [10]: 0 of 6

CCCCCCCN(CCCCCCC)CC(O)c1cc2ccccc2c2cnccc12 (stereo unspecified)
survivor count (dose: 400.0 mg/kg/injection, schedule: Q01DX009 (ip), vehicle: other): 5 of 6

OCCOc1ccc(Cl)cc1Cl
survivor count [11]: 2 of 4

C=CCNCC(O)c1ccccc1 (stereo unspecified)
survivor count (dose: 200.0 mg/kg/injection, schedule: Q01DX009 (ip), vehicle: Klucel (hydroxypropylcellulose) (HPC)): 2 of 6 | survivor count [2]: 1 of 6

CCC(SC#N)C(CC)SC#N (stereo unspecified)
survivor count (dose: 100.0 mg/kg/injection, schedule: Q04DX002 (ip), vehicle: Klucel (hydroxypropylcellulose) (HPC)): 0 of 3 | survivor count (dose: 200.0 mg/kg/injection, schedule: Q04DX002 (ip), vehicle: Klucel (hydroxypropylcellulose) (HPC)): 0 of 3 | survivor count (dose: 400.0 mg/kg/injection, schedule: Q04DX002 (ip), vehicle: Klucel (hydroxypropylcellulose) (HPC)): 0 of 3

[NH-]C(CC(N)=O)C(=O)O.[NH-]C(CC(N)=O)C(=O)O.[Zn+2] (stereo unspecified)
survivor count (dose: 100.0 mg/kg/injection, schedule: Q04DX002 (ip), vehicle: saline): 1 of 3 | survivor count (dose: 200.0 mg/kg/injection, schedule: Q04DX002 (ip), vehicle: saline): 0 of 3 | survivor count (dose: 400.0 mg/kg/injection, schedule: Q04DX002 (ip), vehicle: saline): 0 of 3

C#CCn1cnc2c(=S)nc[nH]c21
T/C (dose: 45.0 mg/kg/injection, schedule: Q01DX009 (ip), vehicle: saline): 146 % of control | T/C (dose: 120.0 mg/kg/injection, schedule: Q04DX003 (ip), vehicle: saline): 136 % of control | T/C (dose: 177.0 mg/kg/injection, schedule: Q04DX003 (ip), vehicle: Klucel (hydroxypropylcellulose) (HPC)): 132 % of control | T/C (dose: 264.0 mg/kg/injection, schedule: Q01DX001 (ip), vehicle: other): 133 % of control | survivor count (dose: 265.0 mg/kg/injection, schedule: Q01DX009 (ip), vehicle: saline): 6 of 6 | T/C (dose: 266.0 mg/kg/injection, schedule: Q01DX001 (ip), vehicle: Klucel (hydroxypropylcellulose) (HPC)): 131 % of control | T/C (dose: 400.0 mg/kg/injection, schedule: Q01DX001 (ip), vehicle: Klucel (hydroxypropylcellulose) (HPC)): 135 % of control | T/C [11]: 125 and 139 % of control | survivor count [4]: 6 of 6 | T/C [6]: 141 % of control | survivor count (dose: 600.0 mg/kg/injection, schedule: Q01DX009 (ip), vehicle: saline): 6 of 6 | T/C (dose: 600.0 mg/kg/injection, schedule: Q04DX003 (ip), vehicle: Klucel (hydroxypropylcellulose) (HPC)): 143 % of control

C=CCNC(=S)Nc1cccc(C(C)OC(=O)NC(C)(C)C)c1 (stereo unspecified)
survivor count [8]: 0 of 6

CCCSc1ccc2c3c(cccc13)C(=O)OC2=O
survivor count [2]: 4 of 6

COC1CC2C(C[CH]1[Hg][Cl])C2(Cl)Cl (stereo unspecified)
survivor count (dose: 25.0 mg/kg/injection, schedule: Q04DX003 (ip), vehicle: saline with Tween-80): 5 of 6

C=CCCCCCCCCC(=O)NCc1ccncc1
survivor count [5]: 4 of 6 | survivor count [3]: 1 of 6

CCN(CC)Cc1cc(Nc2c3ccccc3nc3cc(Cl)ccc23)ccc1O
survivor count (dose: 100.0 mg/kg/injection, schedule: Q01DX Z (ip), vehicle: saline): 3 of 6 | survivor count (dose: 200.0 mg/kg/injection, schedule: Q04DX003 (ip), vehicle: saline): 6 of 6 | survivor count [9]: 0 of 6

CCC1(Br)OC1=O (stereo unspecified)
survivor count [12]: 5 of 6 | survivor count [10]: 5 of 6

COc1cccc(CNC(C)(CO)CO)c1OC
survivor count [1]: 0 of 4

Nc1nc(N)c(-c2ccc(Cl)c(Cl)c2)c(COc2ccc(NC(=O)Nc3ccc(S(=O)(=O)F)c(Cl)c3)c(Cl)c2)n1
survivor count (dose: 300.0 mg/kg/injection, schedule: Q01DX001 (ip), vehicle: saline with Tween-80): 6 of 6

Cc1nc(N)c([N+](=O)[O-])cc1[N+](=O)[O-]
survivor count [12]: 5 of 6 | survivor count (dose: 400.0 mg/kg/injection, schedule: Q01DX009 (ip), vehicle: acetone): 0 of 6

OCC(I)CO
survivor count (dose: 200.0 mg/kg/injection, schedule: Q01DX001 (ip), vehicle: saline): 2 of 4 | survivor count [1]: 0 of 4

CC1=CCC=C(CNc2ncnc3nc[nH]c23)C1
survivor count [7]: 6 of 6
